Assay results: patent US20180213779A1, “PESTICIDALLY ACTIVE HETEROCYCLIC DERIVATIVES WITH SULPHUR CONTAINING SUBSTITUENTS” (SYNGENTA PARTICIPATIONS AG, priority 2015, published 2018)
Some of these results come from one statement about several compounds together.

Test system: Diabrotica balteata (Banded Cucumber Beetle)
Experiment: Example B1: Diabrotica balteata larvicide, feeding/contact activity, preventative (artificial diet, 96-well)
Format: in vivo
Conditions: application rate of 500 ppm; mortality assessed 5 days after treatment

| SMILES | control of Diabrotica balteata |
| --- | --- |
| CCS(=O)(=O)c1cc(C(F)(F)F)cnc1-c1nnc(-c2ccc(C(F)(F)F)nc2)o1 [Compound P6] | at least 70% |
| CCSc1cc(C(F)(F)F)cnc1-c1nnc(-c2cc(C(F)(F)F)ccn2)o1 [Compound P4, 2-[3-ethylsulfanyl-5-(trifluoromethyl)-2-pyridyl]-5-[4-(trifluoromethyl)-2-pyridyl]-1,3,4-oxadiazole] | at least 70% |
| CCS(=O)(=O)c1cc(C(F)(F)F)ccc1-c1nnc(-c2ccc(C(F)(F)F)nc2)o1 [Compound P7] | at least 70% |
| CCS(=O)(=O)c1cc(C(F)(F)F)cnc1-c1nnc(-c2cc(C(F)(F)F)ccn2)o1 [Compound P5, 2-[3-ethylsulfonyl-5-(trifluoromethyl)-2-pyridyl]-5-[4-(trifluoromethyl)-2-pyridyl]-1,3,4-oxadiazole] | at least 70% |

Test system: Heliothis virescens (Tobacco Budworm)
Experiment: Example B2: Heliothis virescens ovo-larvicide, feeding/contact activity, curative (cotton leaf discs)
Format: in vivo
Conditions: application rate of 1000 ppm; mortality assessed 3 days after treatment

| SMILES | control of Heliothis virescens |
| --- | --- |
| CCSc1cc(C(F)(F)F)cnc1-c1cn(-c2ccc(C(F)(F)F)cc2)nn1 [Compound P1, 3-ethylsulfanyl-5-(trifluoromethyl)-2-(1-(4-(trifluoromethyl)phenyl)-1H-1,2,3-triazol-4-yl)pyridine] | at least 75% |
| CCS(=O)(=O)c1cc(C(F)(F)F)cnc1-c1cc(-c2ccc(C(F)(F)F)cc2)on1 [Compound P9, 3-(3-ethylsulfonyl-5-(trifluoromethyl)pyridin-2-yl)-5-(4-(trifluoromethyl)phenyl)-isoxazole] | at least 75% |
| CCS(=O)(=O)c1cc(C(F)(F)F)cnc1-c1nnc(-c2cc(C(F)(F)F)ccn2)o1 [Compound P5, 2-[3-ethylsulfonyl-5-(trifluoromethyl)-2-pyridyl]-5-[4-(trifluoromethyl)-2-pyridyl]-1,3,4-oxadiazole] | at least 75% |
